Among the data in paper PMC6467405 are binding values, retold here.

Sequences of proteins named here, by UniProt entry; tags and fusion partners are left off. Residues count along the entry.
UniProt Q02413, residues 50-1049: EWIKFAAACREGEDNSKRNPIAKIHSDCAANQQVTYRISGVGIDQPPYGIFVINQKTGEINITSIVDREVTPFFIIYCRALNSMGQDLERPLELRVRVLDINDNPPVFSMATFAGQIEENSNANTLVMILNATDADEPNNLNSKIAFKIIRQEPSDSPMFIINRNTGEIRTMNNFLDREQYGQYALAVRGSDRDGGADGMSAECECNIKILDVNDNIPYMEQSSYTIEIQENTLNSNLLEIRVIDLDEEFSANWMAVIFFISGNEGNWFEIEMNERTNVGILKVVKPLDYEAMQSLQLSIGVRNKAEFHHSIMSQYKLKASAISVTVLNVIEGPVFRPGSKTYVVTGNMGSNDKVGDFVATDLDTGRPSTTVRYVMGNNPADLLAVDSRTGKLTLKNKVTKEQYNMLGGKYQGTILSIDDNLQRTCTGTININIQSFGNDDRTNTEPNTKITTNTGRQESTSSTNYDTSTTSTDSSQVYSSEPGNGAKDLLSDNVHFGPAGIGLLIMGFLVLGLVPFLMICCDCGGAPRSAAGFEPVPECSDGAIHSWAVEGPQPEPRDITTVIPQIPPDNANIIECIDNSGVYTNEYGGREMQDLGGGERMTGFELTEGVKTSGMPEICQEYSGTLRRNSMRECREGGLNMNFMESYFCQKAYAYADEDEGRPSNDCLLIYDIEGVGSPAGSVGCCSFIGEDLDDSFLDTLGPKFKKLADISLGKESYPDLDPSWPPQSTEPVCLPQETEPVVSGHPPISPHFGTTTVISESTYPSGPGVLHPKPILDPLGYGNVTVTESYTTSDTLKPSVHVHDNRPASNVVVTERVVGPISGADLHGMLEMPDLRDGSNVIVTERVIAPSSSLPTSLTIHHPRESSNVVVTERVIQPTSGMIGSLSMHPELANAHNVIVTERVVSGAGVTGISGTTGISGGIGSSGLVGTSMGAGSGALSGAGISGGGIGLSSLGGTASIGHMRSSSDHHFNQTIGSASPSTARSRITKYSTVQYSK

This assay deals with desmoglein1 (Dsg1) (human (endogenous in Neoderm-E skin equivalent)) (UniProt Q02413). In words: co-IP; lysate (RIPA buffer, EDTA-free protease inhibitors) of reconstructed human skin equivalent Neoderm-E, treated topically with 10% serine for 3 days or untreated; precipitated with anti-Dsg1 antibody and protein G sepharose, 4 °C; blot with anti-Dsc1; three repeats.

Results are given in words; binding and its absence hold for the method and conditions named. In cells and extracts the contact can be indirect. Some entries that bind do so weakly or less than the wild type.

B1: desmocollin1 (Dsc1) (protein, UniProt Q08554 135-894)
chain: RWAPIPASLMENSLGPFPQHVQQIQSDAAQNYTIFYSISGPGVDKEPFNLFYIEKDTGDIFCTRSIDREKYEQFALYGYATTADGYAPEYPLPLIIKIEDDNDNAPYFEHRVTIFTVPENCRSGTSVGKVTATDLDEPDTLHTRLKYKILQQIPDHPKHFSIHPDTGVITTTTPFLDREKCDTYQLIMEVRDMGGQPFGLFNTGTITISLEDENDNPPSFTETSYVTEVEENRIDVEILRMKVQDQDLPNTPHSKAVYKILQGNENGNFIISTDPNTNEGVLCVVKPLNYEVNRQVILQVGVINEAQFSKAASSQTPTMCTTTVTVKIIDSDEGPECHPPVKVIQSQDGFPAGQELLGYKALDPEISSGEGLRYQKLGDEDNWFEINQHTGDLRTLKVLDRESKFVKNNQYNISVVAVDAVGRSCTGTLVVHLDDYNDHAPQIDKEVTICQNNEDFAVLKPVDPDGPENGPPFQFFLDNSASKNWNIEEKDGKTAILRQRQNLDYNYYSVPIQIKDRHGLVATHMLTVRVCDCSTPSECRMKDKSTRDVRPNVILGRWAILAMVLGSVLLLCILFTCFCVTAKRTVKKCFPEDIAQQNLIVSNTEGPGEEVTEANIRLPMQTSNICDTSMSVGTVGGQGIKTQQSFEMVKGGYTLDSNKGGGHQTLESVKGVGQGDTGRYAYTDWQSFTQPRLGEKVYLCGQDEEHKHCEDYVCSYNYEGKGSLAGSVGCCSDRQEEEGLEFLDHLEPKFRTLAKTCIKK
For B1, the binding result is “binds”.
